Source: PubChem BioAssay AID504444 (National Center for Advancing Translational Sciences (NCATS), 2011)
Hit rate of the full screen: of about 360,000 compounds, about 7,500 (2.1%) were called active. The inconclusive results got no clear call from the source; some entries with a clear call stand among them for comparison. Calls come from the whole dose curve; as a rule, active = well fitted inhibition curve with a large enough effect; inconclusive = small, poorly fitted or top-dose-only effect, or effect the other way; inactive = flat fitted curve, though single readings scatter. Potencies of inconclusive entries are doubtful fits and often do not repeat.

experiment: Nrf2 qHTS screen for inhibitors; details: A549 ARE-Fluc reporter, luciferase luminescence, 18-24 h; activity change, negative = inhibition: at 46 µM (top of the series); note: nearly all actives have a fitted effect of over 60% in size
Summary of the method: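 Nrf2 function is reported as luminescence of an ARE-controlled luciferase in A549 cells. Compounds were tested at several concentrations, and a CellTiter-Fluor read on the same wells flagged cytotoxicity.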
% is set by controls: 0 for no effect and ±100 for the full control effect; potency is the fitted concentration of half-maximal effect.

Row | SMILES | Potency | activity change, negative = inhibition
1 | Cc1ccc(OCC(=O)Nc2ccc3nc(SCC(=O)N4CCOCC4)sc3c2)cc1 | inconclusive: 18.4 µM [falling, single point] | –
2 | CC(=O)c1c(C)[nH]c(C(=O)N(C)CC(=O)Nc2ccc(Cl)c(C(F)(F)F)c2)c1C | inconclusive: 14.6 µM [falling, partial curve, poor fit] | –
3 | Cc1nnn(C23C[C@@H]4C[C@@H](CC(C(=O)N5CCN(c6ccccc6)CC5)(C4)C2)C3)n1 | – | inactive: -4.13%
4 | Cc1ccnc(S(=O)(=O)Cc2ccc([N+](=O)[O-])cc2)n1 | inconclusive: 20.6 µM [falling, partial curve, poor fit] | –
5 | CCCCc1c(C)nc2c(-c3ccc(OC)cc3)c(C)[nH]n2c1=O | active: 20.6 µM | –
6 | Cc1ccc(C(=O)N2CCN(c3ccc(NC(=O)c4ccc(Br)o4)cc3)CC2)cc1 | inconclusive: 32.6 µM [falling, single point] | –
7 | Cc1ccc(C(CC(=O)NCc2ccco2)c2ccc(OC(C)C)cc2)cc1 (centres undefined) | active: 7.31 µM | –
8 | O=C(Nc1ncc(Cc2ccc(C(F)(F)F)cc2)s1)c1ccc(-c2cccc([N+](=O)[O-])c2)o1 | active: 5.8 µM | –
9 | C=CCn1c(C)cc(C(=O)COC(=O)c2n[nH]c(=O)c3ccccc23)c1C | inconclusive: 29.1 µM [falling, single point] | –
10 | COc1ccc(-n2c(=S)[nH]c3cc(C(=O)NCc4ccccc4)ccc3c2=O)c(OC)c1 | inconclusive: 20.6 µM [falling, single point] | –
11 | CS(=O)(=O)c1ccc(C(=O)OCc2nnc(-c3ccc(Cl)cc3)o2)cc1[N+](=O)[O-] | inconclusive: 25.9 µM [falling, partial curve, poor fit] | –
12 | O=C(NCCn1ccc2ccccc21)c1ccc2c(c1)OCO2 | inconclusive: 9.2 µM [activator, partial curve] | –
13 | O=C(CSc1nnc(CNC(=O)c2ccco2)o1)Nc1ccccc1F | – | inactive: 0.772%
14 | COc1cccc(Nc2cc(C)nc3nc(-c4ccc(Cl)cc4)nn23)c1 | inconclusive: 29.1 µM [activator, single point] | –
15 | Cc1nn(C)c2c1c(-c1ccccc1)cc(=O)n2CC(=O)Nc1ccccc1C(F)(F)F | – | inactive: -24.8%
16 | COc1cccc(C2CC(=O)NC3=C2C(=O)CCC3)c1 (centres undefined) | inconclusive: 16.4 µM [activator, partial curve, poor fit] | –
17 | COc1ccc(NCc2cc3cc4c(cc3n(CC(=O)Nc3cc(C)cc(C)c3)c2=O)OCO4)cc1 | – | inactive: 17.8%
18 | Cc1c(C(C)C)c(=O)n(-c2ccc(S(=O)(=O)N3CCOCC3)cc2)n1C | inconclusive: 16.4 µM [falling, partial curve, poor fit] | –
19 | CCOC(=O)c1c(NC(=O)CSc2nnc(-c3c[nH]c4ccccc34)n2CC)sc2c1CCCC2 | inconclusive: 16.4 µM [falling, partial curve, poor fit] | –
20 | Cn1c(CCC(=O)OCC(=O)NCC(F)(F)F)nc(=O)c2ccccc21 | inconclusive: 20.6 µM [falling, single point] | –

Single values from the entries so far.
Value for COc1cccc(C2CC(=O)NC3=C2C(=O)CCC3)c1 (centres undefined) under Potency: inconclusive: 16.4 µM [activator, partial curve, poor fit]
Value for Cc1c(C(C)C)c(=O)n(-c2ccc(S(=O)(=O)N3CCOCC3)cc2)n1C under Potency: inconclusive: 16.4 µM [falling, partial curve, poor fit]

Following part.

Row | SMILES | Potency | activity change, negative = inhibition
21 | CCOC(=O)COc1ccccc1C1C(C(=O)OC)=C(C)NC2=C1C(=O)c1ccccc12 (centres undefined) | – | inactive: -0.563%
22 | O=C(NNC(=O)c1cccc(-n2cccc2)c1)c1ccccc1 | inconclusive: 20.6 µM [activator, partial curve, poor fit] | –
23 | Cn1c(=O)cc(SCC(=O)N2CCCC2)c2ccc(Cl)cc21 | inconclusive: 7.31 µM [falling, partial curve, poor fit] | –
24 | Cc1ccc(N(C(=O)c2snc(C(N)=O)c2N)C(C(=O)NCC2CCCO2)c2ccc(C)o2)c(C)c1 (centres undefined) | inconclusive: 29.1 µM [falling, partial curve, poor fit] | –
25 | Cc1nc2c(c(C)c1CCC(=O)NCc1ccccc1)c(=O)n(C)c(=O)n2C | – | inactive: -1.15%
26 | Cc1cc(/C=C2/SC(=S)N(c3cccc(Cl)c3)C2=O)c(C)n1-c1cccnc1 | inconclusive: 8.2 µM [falling, partial curve, poor fit] | –
27 | CC(=O)C1C(c2ccco2)c2c(noc2C)CC1(C)O (centres undefined) | inconclusive: 2.91 µM [falling, full curve, poor fit] | –
28 | O=C(NCc1nc2ccccc2[nH]1)C1=C[C@H](C2CCCCC2)C[C@H](OCc2ccc(CO)cc2)O1 | inconclusive: 29.1 µM [falling, single point] | –
29 | CCOC(=O)c1cccc(NC(=O)c2cc3c(-c4cccc(OC)c4)nn(C)c3s2)c1 | inconclusive: 13 µM [falling, partial curve, poor fit] | –
30 | O=C1Nc2ccc(Cl)cc2C(C#CC2CC2)(C(F)(F)F)O1 (centres undefined) | inconclusive: 32.6 µM [falling, single point] | –
31 | Cc1c(C)n(Cc2ccccc2)c2ccc(C(=O)OCCCN(C)C)cc12 | inconclusive: 29.1 µM [falling, single point] | –
32 | Cn1c(N)c(C(=O)COC(=O)C2(c3ccc(F)cc3)CCCC2)c(=O)n(C)c1=O | inconclusive: 29.1 µM [falling, single point] | –
33 | CC1CCN(C(=O)CN(c2ccc3c(c2)OCCO3)S(=O)(=O)c2ccccc2)CC1 | inconclusive: 16.4 µM [activator, partial curve, poor fit] | –
34 | CC(C)C(=O)NC(c1ccc(Cl)cc1Cl)c1ccc2cccnc2c1O (centres undefined) | active: 13 µM | –
35 | CC(C)(C)OC(=O)NNC(=O)c1cccs1 | inconclusive: 29.1 µM [activator, partial curve, poor fit] | –
36 | COc1cccc(C(=O)OCC(=O)c2c[nH]c3ccccc23)c1OC | inconclusive: 7.31 µM [activator, partial curve, poor fit] | –
37 | Cc1cc(C)cc(Nc2nc(-c3ccc(S(=O)(=O)N4CCCC4)cc3)cs2)c1 | inconclusive: 20.6 µM [falling, single point] | –
38 | COc1ccc(N(Cc2cccs2)C(=O)c2ccc(OCC(C)C)cc2)cc1 | inconclusive: 20.6 µM [falling, partial curve] | –
39 | Cc1n[nH]c(C)c1CCCCOc1ccccc1[N+](=O)[O-] | inconclusive: 29.1 µM [falling, single point] | –
